Consider one compound from patent US20080090749A1 (priority 2005, published 2008).

Each structure is given as a SMILES string. Where “and” joins values, the source holds several entries; their conditions need not be identical. Equal values may be shown once. Where no unit stands, none is given here, and values compare only within one read-out.

Series [1] is described as follows: Body weight, Example 2. The format is in vivo, Wistar rats. Conditions: group mean, 8 rats; 1.5 g per kg oral.
Series [2] can be described thus: Body weight, Example 3. The class given is in vivo, Wistar rats.

Consider `Cl.N[C@@H](Cc1c[nH]cn1)C(=O)O` [Histidine, L-histidine hydrochloride], for which the “Body weight, Mean” value was determined as 246.7 in series [1] and 257.8 in series [2] (group mean, 8 rats, 1.5 g per kg oral). Also, in series [2] (individual rats, L-histidine hydrochloride 1.5 g per kg oral, hydrochloride), the Body weight was 246.7 and 242.1 and 246.8 and 250 and 252.7 and 253.9 and 257.9 and 261.5.
